PubChem BioAssay AID504808, Drosophila RNAi Screening Center – 2011

Screen: 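Genes whose loss lifts activity of an E2F-responsive reporter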 (primary screen)
Cells: Drosophila S2 cells
Reagent: long dsRNA against Drosophila genes
Read-out: 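Dual luciferase plate measurements; E2F-specific signal taken as firefly over Renilla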
Scale: E2F firefly: higher = more E2F reporter activity; Renilla normaliser: higher = more normaliser reporter signal
Hit rule: 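Called active if the normalised E2F reporter went up by over 50%; the cutoff is arbitrary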
In all, the deposit lists about 21,000 reagents; shown is an unselected part of those with a known target gene and a result. Over the whole deposit, 18 (0.084%) were called active. 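Raw counts without plate normalisation, one of two replicates; the ratio scores behind the calls were not deposited.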 Names joined by + are all predicted targets of the reagent. Reagent sequences are not shown. The record does not give: the amount of reagent, the time to read-out.

gene	amplicon	E2F firefly, rep 1	Renilla normaliser, rep 1	call
side-IV	DRSC14833	1.04e5	5440	inactive
CG7381	DRSC16238	75122	3914	inactive
CG10747	DRSC02104	1.15e5	4202	inactive
Sf3b1	DRSC00535	92821	150	inactive
Proc-R	DRSC18410	1.11e5	6040	inactive
CG12689	DRSC17879	1.28e5	6282	inactive
CG9281	DRSC20179	8564	716	inactive
CG14200	DRSC19555	76291	90	inactive
CG9926	DRSC16582	80647	3831	inactive
Osi14	DRSC12368	1.28e5	5369	inactive
DIP-zeta	DRSC02203	1.52e5	5270	inactive
DIP-zeta	DRSC02204	1.47e5	5085	inactive
DIP-zeta	DRSC02205	1.57e5	5803	inactive
Sur-8	DRSC15794	1.01e5	6274	inactive
CG32544	DRSC20033	1.61e5	4435	inactive
Nna1	DRSC19404	8777	648	inactive
PGRP-LD + Cralbp + Pmi	DRSC09743	95261	4043	inactive
tw	DRSC18537	1899	832	inactive
Cpr67Fa1	DRSC10932	1.31e5	5671	inactive
S6KL	DRSC19349	1.42e5	5229	inactive
CG13282	DRSC02254	98230	4501	inactive
galectin	DRSC00305	1.72e5	5613	inactive
MCTS1	DRSC18393	8514	840	inactive
CG15882	DRSC19735	1.36e5	5823	inactive
CG15330	DRSC18014	1.05e5	5180	inactive
CG12942	DRSC06253	154	30	inactive
smg	DRSC11397	71877	3742	inactive
bin	DRSC10332	81037	3191	inactive
mil	DRSC15696	1.15e5	6199	inactive
CG12725	DRSC19501	98494	5166	inactive
Tcs3	DRSC10461	1.84e5	8005	inactive
Alp10	DRSC09749	95728	3650	inactive
ogre	DRSC18809	7972	676	inactive
CG9626	DRSC16525	77582	3575	inactive
